{"source": "paper PMC6884552", "about": "“Glycogen branching enzyme controls cellular iron homeostasis via Iron Regulatory Protein 1 and mitoNEET” (Nature Communications, 2019)", "binders": {"B1": {"name": "HA-tagged Drosophila Cisd2 (natural protein, UniProt Q9VAM6 1-133, looked up)", "chain": "MEPISHLVKSSLPNYLSSLPVPDSIGGWFKLSFKDWLALIPPTVVVAGLGYTAYLAYCPAARASCAAKNSGRCNNHIRKNEPKVVDMIDVEDIAEKAAFCRCWKTKNWPYCDGSHGEHNKQTGDNVGPIVIKK", "notes": "Drosophila Cisd2, cDNA RE49709; also called mitoNEET; Cisd2/mitoNEET; source: S2 cells, transfected, in lysate"}}, "key": {"[1]": {"target": "T1, transgenic Flag-tagged Drosophila IRP1B C447S expressed in flies (Drosophila) (UniProt Q9VGZ3)", "T1 sequence": "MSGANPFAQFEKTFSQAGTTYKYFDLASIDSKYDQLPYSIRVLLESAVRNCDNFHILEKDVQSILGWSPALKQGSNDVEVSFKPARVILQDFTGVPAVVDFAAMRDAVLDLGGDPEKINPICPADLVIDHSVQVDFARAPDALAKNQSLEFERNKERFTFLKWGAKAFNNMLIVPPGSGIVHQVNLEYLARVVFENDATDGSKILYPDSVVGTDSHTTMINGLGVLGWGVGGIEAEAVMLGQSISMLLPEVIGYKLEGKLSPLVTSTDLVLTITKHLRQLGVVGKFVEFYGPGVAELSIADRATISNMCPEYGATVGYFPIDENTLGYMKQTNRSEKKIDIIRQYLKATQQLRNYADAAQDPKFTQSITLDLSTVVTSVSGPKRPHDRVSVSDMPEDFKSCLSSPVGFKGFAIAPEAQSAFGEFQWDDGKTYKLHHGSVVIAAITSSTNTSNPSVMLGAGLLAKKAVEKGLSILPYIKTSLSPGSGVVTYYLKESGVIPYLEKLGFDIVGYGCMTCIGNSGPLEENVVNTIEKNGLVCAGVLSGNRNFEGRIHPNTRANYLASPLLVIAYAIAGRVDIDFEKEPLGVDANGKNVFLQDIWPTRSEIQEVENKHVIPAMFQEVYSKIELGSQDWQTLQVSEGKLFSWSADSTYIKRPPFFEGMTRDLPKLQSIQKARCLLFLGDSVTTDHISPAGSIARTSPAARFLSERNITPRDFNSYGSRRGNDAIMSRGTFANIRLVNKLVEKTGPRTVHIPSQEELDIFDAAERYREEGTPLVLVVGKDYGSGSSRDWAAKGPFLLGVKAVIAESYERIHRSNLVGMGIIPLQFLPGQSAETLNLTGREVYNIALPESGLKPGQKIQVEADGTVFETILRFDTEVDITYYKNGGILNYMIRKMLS", "assay": "affinity purification with mass spectrometry; samples from four fly strains expressing Flag-tagged transgenes IRP1A^C450S, IRP1B^C447S, IRP1A^3R3Q or IRP1B^3R3Q; anti-Flag immunoprecipitation; tissue per sample in Supplementary Table 2"}, "[2]": {"target": "T2, Drosophila IRP1A in larvae (endogenously Flag-tagged IRP1A^3F as bait; endogenous IRP1A as prey) (Drosophila (endogenous in larvae)) (UniProt Q9VCV4)", "T2 sequence": "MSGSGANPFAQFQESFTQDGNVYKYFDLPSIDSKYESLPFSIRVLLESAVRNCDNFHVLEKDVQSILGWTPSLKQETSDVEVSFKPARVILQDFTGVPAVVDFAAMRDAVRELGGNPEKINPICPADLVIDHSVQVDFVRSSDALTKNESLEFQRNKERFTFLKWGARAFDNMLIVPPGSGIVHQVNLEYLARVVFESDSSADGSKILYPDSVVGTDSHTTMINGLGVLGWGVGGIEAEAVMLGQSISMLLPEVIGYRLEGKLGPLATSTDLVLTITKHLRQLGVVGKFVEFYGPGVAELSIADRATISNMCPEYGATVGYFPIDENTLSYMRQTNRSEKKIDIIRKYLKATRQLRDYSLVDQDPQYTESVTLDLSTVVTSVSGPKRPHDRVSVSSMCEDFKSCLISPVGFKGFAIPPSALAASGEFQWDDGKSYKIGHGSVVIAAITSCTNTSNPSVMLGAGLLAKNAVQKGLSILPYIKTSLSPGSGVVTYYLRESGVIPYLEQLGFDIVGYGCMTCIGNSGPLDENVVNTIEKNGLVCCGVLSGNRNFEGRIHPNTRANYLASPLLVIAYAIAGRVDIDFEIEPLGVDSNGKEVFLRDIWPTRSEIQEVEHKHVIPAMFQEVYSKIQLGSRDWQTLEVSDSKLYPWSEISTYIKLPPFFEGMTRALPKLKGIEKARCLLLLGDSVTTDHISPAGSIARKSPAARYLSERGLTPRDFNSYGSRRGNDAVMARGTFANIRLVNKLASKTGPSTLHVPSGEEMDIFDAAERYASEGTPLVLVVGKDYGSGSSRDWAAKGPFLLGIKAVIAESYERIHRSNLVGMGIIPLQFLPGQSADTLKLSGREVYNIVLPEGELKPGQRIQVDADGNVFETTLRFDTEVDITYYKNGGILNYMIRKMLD", "assay": "affinity purification with mass spectrometry; prothoracic gland cells purified from dissected brain-ring gland complexes (CD8.Venus, anti-CD8 beads); 0.2% formaldehyde cross-linking; anti-Flag immunoprecipitation as for whole body"}, "[3]": {"target": "T2, Drosophila IRP1A in larvae (endogenously Flag-tagged IRP1A^3F as bait; endogenous IRP1A as prey) (Drosophila (endogenous in larvae))", "assay": "affinity purification with mass spectrometry; whole-body L3 larvae with Flag-tagged knock-in alleles (AGBE^FCF, IRP1A^3F, IRP1B^3F) on regular food (IRP1A^3F also after one or two generations on BPS food); 0.2% formaldehyde cross-linking in vivo; anti-Flag M2 affinity gel, 2 h, 4 °C; proteins found in untagged controls removed"}, "[4]": {"target": "T3, Drosophila AGBE in larvae (endogenously Flag-tagged AGBE^FCF as bait; endogenous AGBE as prey) (Drosophila (endogenous in larvae)) (UniProt A1Z992)", "T3 sequence": "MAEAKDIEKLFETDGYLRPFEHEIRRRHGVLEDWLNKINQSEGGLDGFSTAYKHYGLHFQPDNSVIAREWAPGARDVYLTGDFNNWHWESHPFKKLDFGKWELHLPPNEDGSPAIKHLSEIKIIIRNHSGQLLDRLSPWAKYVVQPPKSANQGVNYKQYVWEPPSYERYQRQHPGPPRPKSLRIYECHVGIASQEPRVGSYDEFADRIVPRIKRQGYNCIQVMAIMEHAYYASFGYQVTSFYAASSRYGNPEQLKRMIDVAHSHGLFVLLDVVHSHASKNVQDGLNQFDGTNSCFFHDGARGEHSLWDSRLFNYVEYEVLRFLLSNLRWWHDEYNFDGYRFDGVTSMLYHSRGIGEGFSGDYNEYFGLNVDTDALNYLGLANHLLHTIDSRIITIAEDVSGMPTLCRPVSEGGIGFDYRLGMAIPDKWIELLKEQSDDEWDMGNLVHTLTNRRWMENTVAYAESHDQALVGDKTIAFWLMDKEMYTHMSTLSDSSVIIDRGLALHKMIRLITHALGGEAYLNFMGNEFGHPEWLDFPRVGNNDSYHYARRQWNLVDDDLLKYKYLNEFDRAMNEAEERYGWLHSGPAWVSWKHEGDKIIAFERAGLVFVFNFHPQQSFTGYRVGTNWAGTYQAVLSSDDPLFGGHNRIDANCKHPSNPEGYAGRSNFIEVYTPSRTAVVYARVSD", "assay": "affinity purification with mass spectrometry; whole-body L3 larvae with Flag-tagged knock-in alleles (AGBE^FCF, IRP1A^3F, IRP1B^3F) on regular food (IRP1A^3F also after one or two generations on BPS food); 0.2% formaldehyde cross-linking in vivo; anti-Flag M2 affinity gel, 2 h, 4 °C; proteins found in untagged controls removed"}}, "note": "These are yes or no findings as the source states them, for the method shown. Binding seen in cells or lysates may run through a third protein. Here binding means that the protein was enriched with, or labelled near, the bait; the list need not be complete. For some of these results: No binding means not detected with the bait. Where a sequence is shown, tags or fusion partners need not be part of it."}
{"binder": "B1", "values": [{"measurement": "binding", "setting": "[1]", "value": "no binding"}, {"measurement": "binding", "setting": "[2]", "value": "binds"}, {"measurement": "binding", "setting": "[3]", "value": "binds"}, {"measurement": "binding", "setting": "[4]", "value": "binds"}]}
